# From the supplement of paper PMC9015667
# Some of the results follow. Repeats are few or missing, and single values can be far off.
# Test system: M229R (matched melanoma line resistant to BRAF inhibitors)
# Test: reduction in cell viability relative to untreated/vehicle; higher = more growth inhibition
# Conditions: 200 nM; 72 h
row,SMILES,reduction in cell viability
1,O=C(O)C[C@H](O)C[C@H](O)/C=C/c1c(C2CC2)nc2ccccc2c1-c1ccc(F)cc1 [Pitavastatin calcium],< 0%
2,C=C1/C(=C\C=C2/CCC[C@]3(C)[C@@H]([C@H](C)/C=C/C=C/C(O)(CC)CC)CC[C@@H]23)C[C@@H](O)C[C@@H]1O [Seocalcitol],< 0%
3,CCOc1cc2ncc(C#N)c(Nc3ccc(F)c(Cl)c3)c2cc1NC(=O)/C=C/CN(C)C [Pelitinib],< 0%
4,Cc1cccc(-c2[nH]ncc2-c2ccc3ncccc3n2)n1,< 0%
5,CCC(=O)NCC[C@@H]1CCc2ccc3c(c21)CCO3 [Ramelteon],< 0%
6,C[C@H](Cc1cc2c(c(C(N)=O)c1)N(CCCO)CC2)NCCOc1ccccc1OCC(F)(F)F [Silodosin],< 0%
7,Nc1ccc(C(=O)Nc2cccc(-c3nc(N4CCOCC4)c4oc5ncccc5c4n3)c2)cn1,< 0%
8,O=C(O)c1nc(=O)[nH]c(=O)[nH]1 [Oteracil potassium],< 0%
9,Cc1cn([C@H]2C[C@H](N=[N+]=[N-])[C@@H](CO)O2)c(=O)[nH]c1=O [Zidovudine],< 0%
10,Cc1cc2cc3c(C)cc(=O)oc3c(C)c2o1 [Trioxsalen],< 0%
11,CCCCCCNC(=O)n1cc(F)c(=O)[nH]c1=O [Carmofur],< 0%
12,OC[C@H]1O[C@@H](n2cnc3c2N=CNC[C@H]3O)C[C@@H]1O [Pentostatin],< 0%
13,N[C@@H](Cc1cc(I)c(Oc2cc(I)c(O)c(I)c2)c(I)c1)C(=O)O [L-Thyroxine],< 0%

# For reference, 2 of the compounds above.
row,SMILES,reduction in cell viability
7,Nc1ccc(C(=O)Nc2cccc(-c3nc(N4CCOCC4)c4oc5ncccc5c4n3)c2)cn1,< 0%
8,O=C(O)c1nc(=O)[nH]c(=O)[nH]1 [Oteracil potassium],< 0%
